The test concerns the target human mtSOD1-L126delTT with a FLAG sequence at the C terminus (human) (UniProt P00441). The test can be described thus: affinity purification with mass spectrometry; anti-FLAG M2 IP (5 ug antibody, protein A/G magnetic beads) from the nuclear fraction of DF7 cells (500 ug total protein); control IP with monoclonal mouse IgG (MOPC 21); DIA proteomics; hits: log2 FC >= 2 over control or missing in the control IP.

By UniProt entry, the sequences of proteins in these tests, tags left out. Where a name states a change or a piece, a line headed by the entry shows the natural chain unless it says otherwise.
UniProt P00441: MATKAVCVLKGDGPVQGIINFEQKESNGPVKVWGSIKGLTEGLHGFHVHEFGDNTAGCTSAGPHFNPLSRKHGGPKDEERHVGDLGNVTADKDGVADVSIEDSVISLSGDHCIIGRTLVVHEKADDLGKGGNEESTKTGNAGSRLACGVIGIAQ

From article PMC12017883 come the findings set out here.

Results are given in words; binding and its absence hold for the method and conditions named. Binding seen in cells or lysates may run through a third protein. A yes stands for co-enrichment or nearness to the bait. Other partners may have been found.

B1: Clathrin light chain B (protein, UniProt Q6IRU5 1-229)
chain: MAEDFGFFSSSESGAPEAAEEDPAAAFLAQQESEIAGIENDPGFGAPAASQVASAQPGLASGAGSEDMSTTVNGDVFQEANGPADGYAAIAQADRLTQEPESIRKWREEQKKRLQELDAASKVTEQEWREKAKKDLEEWNQRQSEQVEKNKINNRIADKAFYQQPDADTIGYVASEEAFVKESKEETPGTEWEKVAQLCDFNPKSSKQCKDVSRLRSVLMSLKQTPLSR
Take B1: the binding result is given as “binds”.

B2: Ataxin 2 (protein, UniProt O70305 1-1285)
chain: MRSSTAAVQRPAAGDPEPRRPAGWAARRSLPRTARRGGRGGAVAYPSAGPPPRGPGAPPRGPRSPPCASDCFGSNGHGASRPGSRRLLGVCGPPRPFVVVLLALAPAATPARACPPGVRASPPRSGVSSSARPAPGCPRPACEPVYGPLTMSLKPQPQPPAPATGRKPGGGLLSSPGAAPASAAVTSASVVPAPAAPVASSSAAAGGGRPGLGRGRNSSKGLPQPTISFDGIYANVRMVHILTSVVGSKCEVQVKNGGIYEGVFKTYSPKCDLVLDAAHEKSTESSSGPKREEIMESVLFKCSDFVVVQFKDTDSSYARRDAFTDSALSAKVNGEHKEKDLEPWDAGELTASEELELENDVSNGWDPNDMFRYNEENYGVVSTYDSSLSSYTVPLERDNSEEFLKREARANQLAEEIESSAQYKARVALENDDRSEEEKYTAVQRNCSDREGHGPNTRDNKYIPPGQRNREVLSWGSGRQSSPRMGQPGPGSMPSRAASHTSDFNPNAGSDQRVVNGGVPWPSPCPSHSSRPPSRYQSGPNSLPPRAATHTRPPSRPPSRPSRPPSHPSAHGSPAPVSTMPKRMSSEGPPRMSPKAQRHPRNHRVSAGRGSMSSGLEFVSHNPPSEAAAPPVARTSPAGGTWSSVVSGVPRLSPKTHRPRSPRQSSIGNSPSGPVLASPQAGIIPAEAVSMPVPAASPTPASPASNRALTPSIEAKDSRLQDQRQNSPAGSKENVKASETSPSFSKADNKGMSPVVSEHRKQIDDLKKFKNDFRLQPSSTSESMDQLLSKNREGEKSRDLIKDKTEASAKDSFIDSSSSSSNCTSGSSKTNSPSISPSMLSNAEHKRGPEVTSQGVQTSSPACKQEKDDREEKKDTTEQVRKSTLNPNAKEFNPRSFSQPKPSTTPTSPRPQAQPSPSMVGHQQPAPVYTQPVCFAPNMMYPVPVSPGVQPLYPIPMTPMPVNQAKTYRAGKVPNMPQQRQDQHHQSTMMHPASAAGPPIVATPPAYSTQYVAYSPQQFPNQPLVQHVPHYQSQHPHVYSPVIQGNARMMAPPAHAQPGLVSSSAAQFGAHEQTHAMYACPKLPYNKETSPSFYFAISTGSLAQQYAHPNAALHPHTPHPQPSATPTGQQQSQHGGSHPAPSPVQHHQHQAAQALHLASPQQQSAIYHAGLAPTPPSMTPASNTQSPQSSFPAAQQTVFTIHPSHVQPAYTTPPHMAHVPQAHVQSGMVPSHPTAHAPMMLMTTQPPGPKAALAQSALQPIPVSTTAHFPYMTHPSVQAHHQQQL
Take B2: the binding result is on record as “binds”.

B3: Ddx21 (protein, UniProt Q9JIK5 1-851)
chain: MPGKLRSGAKLGSDGAEESMETLPKPSEKKTRKEKTKSKTEEATEGMEEAVSSKAKKTNKKGPSEDDVDPPKSRKAKKQEEEPQDDTASTSKTSKKKKEPLEKQADSETKEIITEEPSEEEADMPKPKKMKKGKEANGDAGEKSPKLKNGLSQPSEEEADIPKPKKMKKGKEANGDAGEKSPKLKNGLSQPSEEEVDIPKPKKMKKGKEASGDAGEKSPRLKDGLSQPSEPKSNSSDAPGEESSSETEKEIPVEQKEGAFSNFPISEETVKLLKARGVNFLFPIQAKTFHHVYSGKDLIAQARTGTGKTFSFAIPLIEKLQGGLQERKRGRAPQVLVLAPTRELANQVSKDFSDITKKLSVACFYGGTPYGGQIERMRSGIDILVGTPGRIKDHLQNGKLDLTKLKHVVLDEVDQMLDMGFADQVEEILCVAYKKDSEDNPQTLLFSATCPHWVFNVAKKYMKSTYEQVDLIGKKTQKAAITVEHLAIKCHWTERAAVIGDVIRVYSGHQGRTIIFCETKKDAQELSQNTCIKQDAQSLHGDIPQKQREITLKGFRNGNFGVLVATNVAARGLDIPEVDLVVQSCPPKDVESYIHRSGRTGRAGRTGVCICFYQNKEEYQLAQVEQKAGIKFKRIGVPSATEIIKASSKDAIRLLDSVPPTAISHFKQSAEKLIEEKGAVEALAAALAHISGATSVDQRSLINSQAGFVTMILRCSIEMPNISYAWKELKEQLGESIDAKVKGMVFLKGKLGVCFDVRTEAVTEIQEKWHDSRRWQLTVATEQPELEGPPDGYRGRMGQRDGSRGAFRGQRGGSRNFRGQGQRGGSRNFRGQRPGGGNRGQKRSFSKAFGQ
Turning to B3, the binding result is reported as “binds”.

B4: Cytochrome b5 type B (protein, UniProt Q9CQX2 12-146)
chain: KVEGSEPSVTYYRLEEVAKRNSAEETWMVIHGRVYDITRFLSEHPGGEEVLLEQAGADATESFEDVGHSPDAREMLKQYYIGDVHPSDLKPKGDDKDPSKNNSCQSSWAYWFVPIVGAILIGFLYRHFWADSKSS
Consider B4, for which the binding result is on record as “binds”.

B5: Dhx30 (protein, UniProt Q99PU8 1-1217)
chain: MVTPVCNSSTWQPKDSSFLSWPEMFSLDSFRKDRTQHRQRQCKLPPPRLPPMCVNPAPGGTITRASRDLLKEFPQPKNLLNSVIGRALGISHAKDKLVYVHTNGPKKKKVTLHIKWPKSVEVEGYGSKKIDAERQAAAAACQLFKGWGLLGPRNELFDAAKYRVLADRFGSPADSWWRPEPTMPPTSWRQLNPENIRPGGPAGLSRSLGREEEEDEEEELEEGTIDVTEFLSMTQQDSHNPLRDSRGGSFEMTDDDSAIRALTQFPLPKNLLAKVIQIATSSSTAKNLMQFHTVGTKTKLATLTLLWPCPMTFVAKGRRKAEAENKAAALACKKLKSLGLVDRNNEPLTHAMYNLASLRELGETQRRPCTIQVPEPILRKIEAFLSHYPVDSSWISPELRLQSDDILPLGKDSGPLSDPITGKPYMPLSEAEEVRLSQSLLELWRRRGPIWQEAPQLPVDPHRDTILSAIEQHPVVVISGDTGCGKTTRIPQLLLERYVTEGRGARCNVIITQPRRISAVSVAQRVSHELGPSLRRNVGFQVRLESKPPARGGALLFCTVGILLRKLQSNPSLEGVSHVIVDEVHERDVNTDFLLILLKGLQRLNPALRLVLMSATGDNERFSRYFGGCPVIKVPGFMYPVKEHYLEDILAKLGKHQYPHRHRHHESEDECALDLDLVTDLVLHIDARGEPGGILCFLPGWQEIKGVQQRLQEALGMHESKYLILPVHSNIPMMDQKAIFQQPPLGVRKIVLATNIAETSITVNDIVHVVDSGLHKEERYDLKTKVSCLETVWVSRANVIQRRGRAGRCQSGFAYHLFPRSRLEKMVPFQVPEILRTPLENLVLQAKIHMPEKTAVEFLSKAVDSPNIKAVDEAVILLQEIGVLDQREYLTTLGQRLAHISTDPRLAKAIVLAAIFRCLHPLLVVVSCLTRDPFSSSLQNRAEVDKVKALLSHDSGSDHLAFVRAVAGWEEVLRWQDRTSRENYLEENLLYAPSLRFIHGLIKQFSENIYEAFLVGKPSDCTLPSAQCNEYSEEEELVKGVLMAGLYPNLIQVRQGKVTRQGKFKPNSVTYRTKSGNILLHKSTINREATRLRSRWLTYFMAVKSNGSVFVRDSSQVHPLAVLLLTDGDVHIRDDGRRATISLSDSDLLRLEGDSRTVRLLREFRRALGRMVERSLRSELAALPLSVQQEHGQLLALLAELLRGPCGSFDMRKTADD
As for B5, the binding result is “binds”.

B6: Calcium-binding mitochondrial carrier protein Aralar2 (protein, UniProt Q9QXX4 1-676)
chain: MAAAKVALTKRADPAELKAIFLKYASIEKNGEFFMSPHDFVTRYLNIFGESQPNPKTVELLSGVVDQTKDGLISFQEFVAFESVLCAPDALFMVAFQLFDKAGKGEVTFEDVKQIFGQTTIHQHIPFNWDSEFVQLHFGKERKRHLTYAEFTQFLLEIQLEHAKQAFVQRDNAKTGKVSAIDFRDIMVTIRPHVLTPFVEECLVAAAGGTRSHQVSFSYFNGFNSLLNNMELIRKIYSTLAGNRKDVEVTKEEFALAAQKFGQVTPMEVDILFQLADLYEPRGRMTLADIERIAPLEEGMLPFNLAEAQRQQKASGDAARPFLLQLAESAYRFGLGSIAGAVGATAVYPIDLVKTRMQNQRSTGSFVGELMYKNSFDCFKKVLRYEGFFGLYRGLLPQLLGVAPEKAIKLTVNDFVRDKFMHKDGSVPLLAEIFAGGCAGGSQVIFTNPLEIVKIRLQVAGEITTGPRVSALSVVRDLGFFGIYKGAKACFLRDIPFSAIYFPCYAHVKASFANEDGQVSPGSLLLAGAIAGMPAASLVTPADVIKTRLQVAARAGQTTYNGVTDCFRKILREEGPKALWKGVAARVFRSSPQFGVTLLTYELLQRWFYVDFGGVKPVGSEPVPKSRITLPAPNPDHVGGYKLAVATFAGIENKFGLYLPLFKPSASTSKVTAGDS
Regarding B6, the binding result is recorded as “binds”.

B7: Ddx50 (protein, UniProt Q99MJ9 1-734)
chain: MPGKLLWGDIMELEAPLEESESQRKERQKSDRRKSRHHSESEERTETRENGVTDDLDAPKPKKAKMREKLNGDTKEGLRFSDEFSPSHKSRRKDLPNGDVDEYEKRSKRVSSSENSHKSSDKAEETLTREQKEGAFSNFSISEETIKLLKGRGVTYLFPIQVKTFGPVYEGKDLIAQARTGTGKTFSFAIPLIERLQRNQETIKKSRSPKVLVLAPTRELANQVAKDFKDITRKLSVACFYGGTSYQSQINQIRNGIDILVGTPGRIKDHLQSGRLDLSKLRHVVLDEVDQMLDLGFAEQVEDIIHESYKTDSEDNPQTLLFSATCPQWVYKVAKKYMKSRYEQVDLVGKMTQKAATTVEHLAIQCHWSQRPAVIGDVLQVYSGSEGRAIIFCETKKNVTEMAMNPHIKQNAQCLHGDIAQSQREITLKGFREGSFKVLVATNVAARGLDIPEVDLVIQSSPPQDVESYIHRSGRTGRAGRTGICVCFYQPRERGQLRYVEQKAGITFKRVGVPSTMDLVKSKSMDAIRSLASVSYAAVDFFRPSAQRLIEEKGAVDALAAALAHISGASSFEPRSLITSDKGFVTMTLESPEEIQDVSCAWKELNRKLSSNAVSHVTRMCLLKGNMGVCFDVPTSESERLQAEWHDSDWILSVPAKLPEIEEYYDGNTSSNPRQRSGWSGGRSGRSGRSGGRSGGRSGRQSRQGSRSGSRQDGRRRSGNRNRSRSGGHKRNFD
Consider B7, for which the binding result is on record as “binds”.
